Source: PubChem BioAssay AID1259308 (NCATS, 2017)
Purpose: 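Knock-downs that increase output of a recombinant reporter protein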 (primary screen). System: human HEK293 embryonic kidney cells stably expressing firefly luciferase (HEK-CMV-Luc2-Hygro). Knock-down reagent: single siRNA against human genes, 0.8 pmol siRNA per well. Timing: 72 h. Detection: 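Reporter luminescence and viable-cell signal on separate replicate plates, given as percent of non-targeting control and median/MAD z-scores, plus per-cell luciferase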. Reading the numbers: total luciferase, z-score: higher = more reporter protein produced. Active means: 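Active when the median/MAD z-score for overall luciferase is greater than 3; a gene was taken forward for validation with new siRNAs if at least two of its three siRNAs passed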. Meaning of the calls: active = raised luciferase; inactive = no rise.
The deposit covers about 59,000 reagents; this is a part drawn at random. About 1,510 of all reagents (2.6%) were called active. 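Calls use total luciferase alone and ignore viability, so some active siRNAs may act by altering cell number.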 A number with no mark means an inactive call. The numbers tell different reagents against one gene apart. Further read-outs or replicates are left out here. No sequences are given here.

| target | reagent no. | total luciferase, z-score |
| --- | --- | --- |
| UQCR11 | 1 | -0.722 |
| UQCR11 | 2 | 0.103 |
| UQCR11 | 3 | 1.47 |
| GALNT8 | 1 | 1.5 |
| GALNT8 | 2 | 1.4 |
| GALNT8 | 3 | -1.23 |
| LAMTOR2 | 1 | 0.108 |
| LAMTOR2 | 2 | -0.735 |
| LAMTOR2 | 3 | 0.527 |
| CCNYL1 | 1 | 0.48 |
| CCNYL1 | 2 | 5.16 (active) |
| CCNYL1 | 3 | 0.72 |
| FRRS1L | 1 | -0.199 |
| FRRS1L | 2 | -0.971 |
| FRRS1L | 3 | 0.822 |
| KLK9 | 1 | -0.121 |
| KLK9 | 2 | 0.0213 |
| KLK9 | 3 | 1.49 |
| M6PR | 1 | 3.4 (active) |
| M6PR | 2 | -0.103 |
| M6PR | 3 | -0.731 |
| ZGPAT | 1 | 1.12 |
| ZGPAT | 2 | -1.16 |
| ZGPAT | 3 | 0.572 |

Quoted from the listing (5 entries):
| target | reagent no. | total luciferase, z-score |
| --- | --- | --- |
| M6PR | 1 | 3.4 (active) |
| M6PR | 2 | -0.103 |
| M6PR | 3 | -0.731 |
| ZGPAT | 1 | 1.12 |
| ZGPAT | 2 | -1.16 |

The results go on.
| target | reagent no. | total luciferase, z-score |
| --- | --- | --- |
| ADPRS | 1 | -0.0709 |
| ADPRS | 2 | -0.628 |
| ADPRS | 3 | 2.33 |
| TLR4 | 1 | 0.579 |
| TLR4 | 2 | 0.684 |
| TLR4 | 3 | 0.358 |
| SSTR2 | 1 | 3.18 (active) |
| SSTR2 | 2 | 1.99 |
| SSTR2 | 3 | -0.615 |
| NRAD1 | 1 | -0.549 |
| NRAD1 | 2 | -1.14 |
| NRAD1 | 3 | -1.33 |
| WDR83 | 1 | -0.717 |
| WDR83 | 2 | -0.369 |
| WDR83 | 3 | 0.122 |
| BDP1 | 1 | -1.69 |
| BDP1 | 2 | -2.68 |
| BDP1 | 3 | 0.0239 |
| GFOD2 | 1 | -0.415 |
| GFOD2 | 2 | -0.0496 |
| GFOD2 | 3 | -1.85 |
| ARFGAP3 | 1 | -0.541 |
| ARFGAP3 | 2 | -1.7 |
| ARFGAP3 | 3 | -0.226 |
| DNM1 | 1 | 0.973 |
| DNM1 | 2 | 2.08 |
| DNM1 | 3 | 0.776 |
| ESCO2 | 1 | -1.36 |
| ESCO2 | 2 | -0.471 |
| ESCO2 | 3 | 1.29 |
| TANK | 1 | -0.555 |
| TANK | 2 | 1.37 |
| TANK | 3 | 0.0743 |
